Data as given in PubChem BioAssay AID2685 (National Center for Advancing Translational Sciences (NCATS), 2010).
The other results are listed elsewhere or left out. These are further read-outs of the screen, such as a control signal, another cell line or another target. No call is given for them. Most of these compounds were active or inconclusive in the main read-out, so they are no random draw. Potencies come from curve fits of mixed quality, noted in brackets.

Assay: qHTS Assay for Lipid Storage Modulators in Drosophila S3 Cells;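 on cell number change: cells counted by Cell Tracker Red CMTPX staining in the red channel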
Conditions: BODIPY lipid droplet fluorescence, 18-24 h; for cell number change: measured here: cell count max response, cells fed with added oleic acid
In short: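 Laser-scanning cytometry quantifies lipid droplet accumulation (500–530 nm total intensity; droplet/cell object ratio) in oleic acid-fed (400 uM added) Drosophila S3 cells treated with a concentration series. 20 uM Triacsin C defined 100% inhibition.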

[1] = measured here: cell number channel AC50, cells fed with added oleic acid
[2] = measured here: lipid fluorescence (Fed channel) AC50, cells fed with added oleic acid

Row | Structure (SMILES) | cell number change [%] | AC50 [1] | AC50 [2]
1 | Cc1ncc([N+](=O)[O-])n1CC(=O)NC(C)(C)C | -22.1 | 1.3 µM [rising, full curve] | 1.3 µM [rising, full curve]
2 | O=C(Nc1ccccc1N1CCCC1)c1cc(S(=O)(=O)N2CCOCC2)ccc1Cl | -20.3 |  | 23.1 µM [falling, single point]
3 | Cc1nc(SCCO)c2oc3ccccc3c2n1 | -12.8 |  | 32.6 µM [rising, single point]
4 | CSCCC(NC(=O)/C(=C/c1ccco1)NC(=O)c1ccc(Br)o1)C(=O)O (configuration not stated) | -25.7 |  | 10.3 µM [falling, single point]
5 | COc1ccc(OC)c(NC(=O)CSc2nnc(-c3cccnc3)s2)c1 | -9.6 | 0.231 µM [rising, full curve, poor fit] | 
6 | Cc1ccc(C)c(N2N=C(C(=O)O)CCC2=O)c1 | -18.2 |  | 6.51 µM [falling, full curve, poor fit]
7 | CCOC(=O)NC(O)C(=O)c1cccs1 (configuration not stated) | -40.2 | 29.1 µM [falling, single point] | 29.1 µM [falling, single point]
8 | CC1CCCCN1C(=O)CCNC(=O)Cn1cnc2ccccc2c1=O (configuration not stated) | 14 |  | 29.1 µM [rising, single point]
9 | O=C(Cn1c(=O)oc2ccccc21)NC(=O)NCc1ccco1 | 17.9 |  | 
10 | CCOC(=O)C1=C(N)OC2=C(C(=O)CC(C)C2)C1c1cccnc1 (configuration not stated) | 3.63 |  | 0.116 µM [rising, full curve, poor fit]
11 | O=C(NCc1ccccc1)C1CCCN(C(=O)Nc2ccccc2)C1 (configuration not stated) | 4.71 |  | 6.51 µM [rising, single point]
12 | CCOC(=O)c1cc2c(=O)n3ccccc3nc2n(Cc2ccco2)c1=NC(=O)c1ccccc1OC | 43.1 | 0.731 µM [rising, full curve, poor fit] | 
13 | Cc1cc(C)c(C(=O)/C=C/c2ccco2)c(=O)[nH]1 | 3.98 |  | 0.00731 µM [rising, full curve, poor fit]
14 | O=C(CSc1nccn1-c1ccccc1)N1CCc2ccccc21 | -0.533 |  | 
15 | COc1cc(NC(=O)c2oc3ccccc3c2C)ccc1NC(=O)c1ccco1 | 15.2 |  | 
16 | Cc1ccc(C)c(SCC(=O)OCC(=O)c2ccco2)c1 | 5.38 |  | 29.1 µM [falling, single point]
17 | COn1c(C)c(C(C)=O)c2c3nonc3ccc21 | 2.81 |  | 2.31 µM [rising, partial curve]
18 | CCOC(=O)c1c(C)oc2ccc(O)c(CN(C)C)c12 | -205 | 20.6 µM [falling, partial curve] | 20.6 µM [falling, partial curve]
19 | COc1ccc(OC)c2[nH]c(=O)c(CCNC(=O)CC(C)C)cc12 |  | 3.26 µM [rising, partial curve] | 2.91 µM [rising, partial curve]
20 | Cc1nc2nc[nH]n2c(=O)c1NS(=O)(=O)c1ccc([N+](=O)[O-])cc1 | -19.5 |  | 29.1 µM [falling, single point]

Only AC50 [2] and cell number change [%], for four of the compounds above:
Row,Structure (SMILES),AC50 [2],cell number change [%]
15,COc1cc(NC(=O)c2oc3ccccc3c2C)ccc1NC(=O)c1ccco1,,15.2
16,Cc1ccc(C)c(SCC(=O)OCC(=O)c2ccco2)c1,"29.1 µM [falling, single point]",5.38
17,COn1c(C)c(C(C)=O)c2c3nonc3ccc21,"2.31 µM [rising, partial curve]",2.81
18,CCOC(=O)c1c(C)oc2ccc(O)c(CN(C)C)c12,"20.6 µM [falling, partial curve]",-205

(more compounds)

Row | Structure (SMILES) | cell number change [%] | AC50 [1] | AC50 [2]
21 | Nc1nc2ccccc2n1C(=O)c1ccc(F)cc1 | 18.5 |  | 29.1 µM [rising, single point]
22 | N#C/C(=C\c1ccc2c(c1)OCO2)C(=O)NCc1ccco1 |  | 6.51 µM [rising, single point] | 4.11 µM [rising, single point]
23 | c1ccc(-c2cc(N3CCOCC3)nc(-c3ccccc3)n2)cc1 | -14.1 |  | 1.64 µM [rising, full curve]
24 | Cc1ccc(S(C)(=O)=O)cc1C(=O)OCC(=O)N(Cc1ccccc1)Cc1ccccc1 | -23 |  | 0.146 µM [rising, full curve, poor fit]
25 | Clc1ccccc1-c1nnc2sc(-c3ccco3)nn12 | -20.2 |  | 
26 | COc1ccccc1-c1nc2ccccc2c(=O)n1NC(=O)c1cccs1 | -53.9 | 29.1 µM [falling, single point] | 32.6 µM [falling, single point]
27 | C=CCN(CC=C)C(=O)c1ccccc1NC(=O)c1ccccc1C | -21.2 |  | 
28 | CCOc1ccc(Nc2ccc([N+](=O)[O-])c3nonc23)cc1 | -40.6 | 29.1 µM [falling, single point] | 
29 | COc1cc(NC(=O)c2cnn3c(C)cc(C)nc23)c(OC)cc1Cl | 90.2 | 5.17 µM [rising, full curve] | 6.51 µM [rising, single point]
30 | C=C(C)c1cccc(C(C)(C)NC(=O)NCCCn2ccnc2)c1 | 6.08 |  | 0.291 µM [rising, single point]
31 | COc1cc(C(=O)NCCC2=CCCCC2)ccc1OCc1c(C)noc1C | 1.13 |  | 
32 | Cc1ccc(NC(=O)Cn2c([N+](=O)[O-])cnc2C)cc1Cl | 143 | 25.9 µM [rising, partial curve, poor fit] | 
33 | COc1cc(OC)c(NC(=S)Nc2cc(Cl)cc(Cl)c2)cc1Cl | -36.2 | 29.1 µM [falling, single point] | 1.84 µM [rising, partial curve, poor fit]
34 | O=S(=O)(N1CCCCCC1)N1CCNCC1 | 10.3 |  | 10.3 µM [rising, partial curve]
35 | Cn1c(O)c(N=NC(=O)Cn2c(C(F)(F)F)nc3ccccc32)c2ccccc21 | 0.294 |  | 20.6 µM [rising, single point]
36 | Cc1ccc(CCC(=O)Nc2ccccc2F)s1 | 31.4 | 14.6 µM [rising, partial curve, poor fit] | 
37 | CCCSc1ccc([C@H]2N[C@@](CC(C)C)(C(=O)OC)[C@H]3C(=O)N(C)C(=O)[C@@H]23)cc1 | -38.7 | 20.6 µM [falling, single point] | 
38 | Cc1cccc(N2N=C(C(=O)Nc3nc(C)cs3)CCC2=O)c1 | -5.2 |  | 0.103 µM [rising, single point]
39 | COc1ccc2[nH]cc(CCNC(=O)c3ccco3)c2c1 | -31 | 25.9 µM [falling, single point] | 0.0326 µM [rising, full curve, poor fit]
40 | COc1cc(C(=S)N2CCN(C(c3ccccc3)c3ccccc3)CC2)cc(OC)c1O | -10.7 |  | 16.4 µM [falling, single point]

Row | Structure (SMILES) | cell number change [%] | AC50 [1] | AC50 [2]
41 | O=C(c1cc(-c2ccccc2)on1)N1CCCCCC1 | 16.8 | 2.31 µM [rising, partial curve] | 
42 | COc1ccc(Cc2nc3ccc(C(=O)N4CCCC4)cc3o2)cc1OC | -13.8 |  | 6.51 µM [rising, partial curve, poor fit]
43 | Cc1cc2c(sc3ccccc32)c(C)n1 | 26.5 |  | 0.0092 µM [falling, full curve, poor fit]
44 | O=S1(=O)N=C(Nc2ccc(O)c(CN3CCCCC3)c2)c2ccccc21 | -16.5 |  | 0.366 µM [rising, full curve, poor fit]
45 | Cc1noc(C)c1CSCC(=O)N(CCC(C)C)c1c(N)n(Cc2ccccc2)c(=O)[nH]c1=O |  |  | 18.4 µM [rising, single point]
46 | O=C(Nc1ccccc1)Nc1ccc(Cl)c([N+](=O)[O-])c1 | -48 | 32.6 µM [falling, single point] | 0.13 µM [falling, full curve, poor fit]
47 | CCN1CCCC1CNC(=O)C(=O)NCCc1ccc(OC)c(OC)c1 (configuration not stated) | 1.02 |  | 1.84 µM [falling, partial curve, poor fit]
48 | O=C(NC1CCCCCC1)C1CCCN1S(=O)(=O)c1cccc2cccnc12 (configuration not stated) | 4.74 |  | 0.00461 µM [rising, full curve, poor fit]
49 | CC(=O)Nc1ccc(NC(=O)COC(=O)c2ccc(Cl)nc2)cc1 | 3 |  | 
50 | CCOC(=O)c1[nH]c(C)c(C(=O)Nc2ccc(C)c(Cl)c2)c1C | -26.7 |  | 11.6 µM [falling, single point]
51 | COc1ccc(/C=C(\NC(=O)c2cccs2)C(=O)Nc2cccc3ccccc23)cc1OC | -67.9 | 2.06 µM [falling, full curve] | 3.26 µM [falling, full curve]
52 | Cc1ccccc1N1Cc2ccccc2C1 | -41.5 | 14.6 µM [falling, partial curve] | 14.6 µM [falling, partial curve]
53 | COc1cccc(NC(=O)N2CCCc3ccccc32)c1 | 36.9 | 29.1 µM [rising, single point] | 29.1 µM [rising, single point]
54 | Cc1cc(C)cc(OCC(=O)Nc2ccc3c4c(cccc24)CC3)c1 | -34.6 | 29.1 µM [falling, single point] | 7.31 µM [falling, partial curve]
55 | COc1ccc(CCN(Cc2nc3ccccc3c(=O)[nH]2)C(=O)c2ccco2)cc1OC | 5.35 |  | 0.731 µM [rising, full curve, poor fit]
56 | CC(NC(=O)Cc1ccccc1)c1cc2c(cc1Br)OCCCO2 (configuration not stated) | 0.677 | 6.51 µM [rising, single point] | 
57 | CC(=O)NC(CCS(C)(=O)=O)C(=O)N1CCc2ccccc21 (configuration not stated) |  | 6.51 µM [falling, single point] | 6.51 µM [falling, single point]
58 | CCc1ccccc1NC(=S)N(CCN(C)C)C(C)c1ccco1 (configuration not stated) | 5.91 | 6.51 µM [falling, single point] | 
59 | COc1ccc(-c2nc3ccc(C)cn3c2NCc2ccc3c(c2)OCO3)cc1 | -15.2 |  | 18.4 µM [falling, single point]
